Measurements published in patent US20250283138A1.
Results are given in words; binding and its absence hold for the method and conditions named. Some results given as binding are weak or reduced against the parent protein; the word gives no strength. Where a sequence is shown, tags or fusion partners need not be part of it.

Biological target: E. coli glutathione transferase ecGST(103FSY) (E. coli) (UniProt P0A9D2)
Assay: homodimer crosslinking in E. coli, FSY at site 103, anti-His Western blot

B1: E. coli glutathione transferase ecGST(103FSY) (enzyme)
chain: MKLFYKPGACSLASHITLRESGKDFTLVSVDLMKKRLENGDDYFAVNPKGQVPALLLDDGTLLTEGVAIMQYLADSVPDRQLLAPVNSISRYKTIEWLNYIATELHKGFTPLFRPDTPEEYKPTVRAQLEKKLQYVNEALKDEHWICGQRFTIADAYLFTVLRWAYAVKLNLEGLEHIAAFMQRMAERPEVQDALSAEGLK
modifications: FSY (fluorosulfate-L-tyrosine) at site 103
- binding: binds
